Experiment [1] addresses T1, 3xFLAG-tagged PP4c ΔL mutant (Leu 307 deleted) (human) (UniProt P60510).
T1 sequence: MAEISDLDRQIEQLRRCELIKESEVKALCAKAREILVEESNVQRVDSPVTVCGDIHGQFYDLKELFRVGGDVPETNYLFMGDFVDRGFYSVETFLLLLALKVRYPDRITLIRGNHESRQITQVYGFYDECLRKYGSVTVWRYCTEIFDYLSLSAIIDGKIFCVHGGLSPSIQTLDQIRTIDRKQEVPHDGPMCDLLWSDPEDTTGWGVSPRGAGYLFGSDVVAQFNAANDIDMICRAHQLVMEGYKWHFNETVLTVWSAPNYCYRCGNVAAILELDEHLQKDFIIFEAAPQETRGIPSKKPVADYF
The experiment can be described thus: affinity purification with mass spectrometry; 3xFLAG-tagged catalytic subunit (WT or ΔL) transfected in FreeStyle 293F cells; FLAG M2 affinity gel, 3 h at 4 °C; lysis and wash buffer 50 mM Tris pH 7.5, 500 mM NaCl, 0.5% Triton X-100; eluted with 3XFLAG peptide; label-free quantitative LC-MS/MS on unique peptides, three replicates.

For experiment [2], the target named is T2, 3xFLAG-tagged PP4c, wild type (human) (UniProt P60510).
T2 sequence: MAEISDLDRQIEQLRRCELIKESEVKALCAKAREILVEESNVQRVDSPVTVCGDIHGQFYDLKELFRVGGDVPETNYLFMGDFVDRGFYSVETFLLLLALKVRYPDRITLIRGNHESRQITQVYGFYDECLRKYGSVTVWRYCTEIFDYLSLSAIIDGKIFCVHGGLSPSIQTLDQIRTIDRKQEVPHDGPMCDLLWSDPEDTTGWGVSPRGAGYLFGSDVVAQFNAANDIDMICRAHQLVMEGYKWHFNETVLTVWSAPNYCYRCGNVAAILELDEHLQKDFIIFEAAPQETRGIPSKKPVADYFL
The experiment is described as above.

Experimental findings from PMC8630191 are described below.

No constants are given. Whether binding was seen depends on the method and setting. Binding seen in cells or lysates may run through a third protein. Here binding means that the protein was enriched with, or labelled near, the bait; the list need not be complete. Where a sequence is shown, tags or fusion partners need not be part of it.

B1: PP4R1, PP4 regulatory subunit (protein, UniProt Q8TF05 1-950)
chain: MADLSLLQEDLQEDADGFGVDDYSSESDVIIIPSALDFVSQDEMLTPLGRLDKYAASENIFNRQMVARSLLDTLREVCDDERDCIAVLERISRLADDSEPTVRAELMEQVPHIALFCQENRPSIPYAFSKFLLPIVVRYLADQNNQVRKTSQAALLALLEQELIERFDVETKVCPVLIELTAPDSNDDVKTEAVAIMCKMAPMVGKDITERLILPRFCEMCCDCRMFHVRKVCAANFGDICSVVGQQATEEMLLPRFFQLCSDNVWGVRKACAECFMAVSCATCQEIRRTKLSALFINLISDPSRWVRQAAFQSLGPFISTFANPSSSGQYFKEESKSSEEMSVENKNRTRDQEAPEDVQVRPEDTPSDLSVSNSSVILENTMEDHAAEASGKPLGEISVPLDSSLLCTLSSESHQEAASNENDKKPGNYKSMLRPEVGTTSQDSALLDQELYNSFHFWRTPLPEIDLDIELEQNSGGKPSPEGPEEESEGPVPSSPNITMATRKELEEMIENLEPHIDDPDVKAQVEVLSAALRASSLDAHEETISIEKRSDLQDELDINELPNCKINQEDSVPLISDAVENMDSTLHYIHSDSDLSNNSSFSPDEERRTKVQDVVPQALLDQYLSMTDPSRAQTVDTEIAKHCAYSLPGVALTLGRQNWHCLRETYETLASDMQWKVRRTLAFSIHELAVILGDQLTAADLVPIFNGFLKDLDEVRIGVLKHLHDFLKLLHIDKRREYLYQLQEFLVTDNSRNWRFRAELAEQLILLLELYSPRDVYDYLRPIALNLCADKVSSVRWISYKLVSEMVKKLHAATPPTFGVDLINELVENFGRCPKWSGRQAFVFVCQTVIEDDCLPMDQFAVHLMPHLLTLANDRVPNVRVLLAKTLRQTLLEKDYFLASASCHQEAVEQTIMALQMDRDSDVKYFASIHPASTKISEDAMSTASSTY
For B1, the binding result in experiment [1] and in experiment [2] was “binds” in each case.
